Source: the supplement of paper PMC4604168 (melanoma cell lines)
Some of the results follow. Single values are uncertain, as repeats are few or missing.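 The apoptosis fraction was the count of cleaved-PARP antibody-stained nuclei relative to all DNA-stained nuclei, imaged in 1,536-well plates. Screening doses were set so most cells survived, and baseline and induced cleaved-PARP levels vary greatly across cell lines.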

test system: IST-MEL1; assay: cleaved PARP positive nuclei fraction relative to DMSO control; melanoma cells; higher = more apoptosis; conditions: library dose: low library concentration; 72 h

Row | SMILES | cleaved PARP positive nuclei fraction
1 | COc1ccc(C2=N[C@@H](c3ccc(Cl)cc3)[C@@H](c3ccc(Cl)cc3)N2C(=O)N2CCNC(=O)C2)c(OC(C)C)c1 [Nutlin-3] + CC1(C)NC(=O)N(c2ccc([N+](=O)[O-])c(C(F)(F)F)c2)C1=O [nilutamide] (first compound 0.1 µM, partner dose 1 µM) | 101%
2 | Cn1cnc2c(F)c(Nc3ccc(Br)cc3Cl)c(C(=O)NOCCO)cc21 [selumetinib] + O=C(CCCCCCC(=O)Nc1ccccc1)NO [vorinostat] (first compound 0.015 µM, partner dose 0.08 µM) | 172%
3 | COc1ccc(C2=N[C@@H](c3ccc(Cl)cc3)[C@@H](c3ccc(Cl)cc3)N2C(=O)N2CCNC(=O)C2)c(OC(C)C)c1 [Nutlin-3] + Cc1ccc(NC(=O)c2cccc(N(C)C)c2)cc1NC(=O)c1ccc(O)cc1 [ZM336372] (first compound 0.1 µM, partner dose 2 µM) | 95.3%
4 | CS(=O)(=O)c1ccc(C(=O)Nc2ccc(Cl)c(-c3ccccn3)c2)c(Cl)c1 [vismodegib] + O=C(O)c1ccc(-c2c[nH]c3ncc(-c4ccccc4)cc23)cc1C1CCCC1 [GSK650394] (first compound 1 µM, partner dose 0.16 µM) | 138%
5 | C[C@]1(O)C[C@@H](c2nc(-c3ccc4ccc(-c5ccccc5)nc4c3)c3c(N)nccn32)C1 + CC(C)(C)c1cnc(CSc2cnc(NC(=O)C3CCNCC3)s2)o1 [SNS-032] (first compound 0.4 µM, partner dose 0.01 µM) | 84.9%
6 | CC(=O)O[C@@]12CO[C@@H]1C[C@H](O)[C@@]1(C)C(=O)[C@H](O)C3=C(C)[C@@H](OC(=O)[C@H](O)[C@@H](NC(=O)OC(C)(C)C)c4ccccc4)C[C@@](O)([C@@H](OC(=O)c4ccccc4)[C@H]21)C3(C)C [Docetaxel] + COc1cc(Nc2ncc(F)c(Nc3ccc4c(n3)NC(=O)C(C)(C)O4)n2)cc(OC)c1OC [Tamatinib] (first compound 0.0001 µM, partner dose 0.4 µM) | 402%
7 | CS(=O)(=O)c1ccc(C(=O)Nc2ccc(Cl)c(-c3ccccn3)c2)c(Cl)c1 [vismodegib] + CO[C@@H]1[C@H](N(C)C(=O)c2ccccc2)C[C@H]2O[C@]1(C)n1c3ccccc3c3c4c(c5c6ccccc6n2c5c31)C(=O)NC4 [Midostaurin] (first compound 1 µM, partner dose 0.08 µM) | 59.6%
8 | CC(=O)O[C@@]12CO[C@@H]1C[C@H](O)[C@@]1(C)C(=O)[C@H](O)C3=C(C)[C@@H](OC(=O)[C@H](O)[C@@H](NC(=O)OC(C)(C)C)c4ccccc4)C[C@@](O)([C@@H](OC(=O)c4ccccc4)[C@H]21)C3(C)C [Docetaxel] + C[C@@H]1CCN(C(=O)CC#N)C[C@@H]1N(C)c1ncnc2[nH]ccc12 [CP690550] (first compound 0.0001 µM, partner dose 1 µM) | 111%
9 | Cn1cnc2c(F)c(Nc3ccc(Br)cc3Cl)c(C(=O)NOCCO)cc21 [selumetinib] + O=C(Nc1cccc(Cl)c1)Nc1ncc(CCNc2ncnc3ccsc23)s1 [SNS314] (first compound 0.015 µM, partner dose 0.0008 µM) | 64.2%
10 | NC(=O)c1ccc(N(C(N)=O)c2c(F)cccc2F)nc1-c1ccc(F)cc1F + OCCn1cc(-c2cnc3nnn(Cc4ccc5ncccc5c4)c3n2)cn1 [PF04217903] (first compound 0.4 µM, partner dose 1 µM) | 126%
11 | CC1(C)CCC(c2ccc(Cl)cc2)=C(CN2CCN(c3ccc(C(=O)NS(=O)(=O)c4ccc(N[C@H](CCN5CCOCC5)CSc5ccccc5)c(S(=O)(=O)C(F)(F)F)c4)cc3)CC2)C1 + CO[C@@H]1[C@H](N(C)C(=O)c2ccccc2)C[C@H]2O[C@]1(C)n1c3ccccc3c3c4c(c5c6ccccc6n2c5c31)C(=O)NC4 [Midostaurin] (first compound 0.4 µM, partner dose 0.08 µM) | 148%
